Reference: PubChem BioAssay AID2685 (National Center for Advancing Translational Sciences (NCATS), 2010)
The other results are listed elsewhere or left out. Further columns of the screen follow, without active or inactive calls. The list favours compounds with an active or inconclusive main result. The note in brackets gives the kind of curve behind each potency; many fits are weak.

Assay: qHTS Assay for Lipid Storage Modulators in Drosophila S3 Cells;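 on cell number change: cells counted by Cell Tracker Red CMTPX staining in the red channel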
Details: BODIPY lipid droplet fluorescence, 18-24 h; for cell number change: measured here: cell count max response, cells fed with added oleic acid
In short: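 Drosophila S3 cells loaded with oleic acid (400 uM, as added) and compounds at several concentrations; lipid droplets imaged by 488-nm laser-scanning cytometry, 500–530 nm intensity and object ratio to cell channel. Percent activity normalized to 20 uM Triacsin C.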

[1] = measured here: lipid fluorescence (Fed channel) AC50, cells fed with added oleic acid
[2] = measured here: cell number channel AC50, cells fed with added oleic acid

| SMILES | cell number change [%] | AC50 [1] | AC50 [2] |
| --- | --- | --- | --- |
| CCOC(=O)c1[nH]c(C)c(CN(Cc2ccco2)C(=O)C(F)(F)F)c1C | -22.7 | 29.1 µM [falling, single point] |  |
| Cc1ccc(C(=O)Oc2coc(CSc3nnc(NC(=O)C4CC4)s3)cc2=O)cc1 |  | 0.259 µM [rising, full curve, poor fit] |  |
| CCN(CC)c1ccc(/C=C2\SC(N)=NC2=O)cc1 | 6.88 |  |  |
| O=C(NC1CCSc2ccccc21)c1cccc(Cl)c1 (centres undefined) | 12.4 | 29.1 µM [falling, single point] |  |
| CCN(CC)S(=O)(=O)c1ccc(C(=O)NCCSc2c[nH]c3ccccc23)cc1 |  |  | 0.58 µM [rising, single point] |
| CCOC(=O)c1ccc(NC(=O)N2CCOCC2)cc1 | -22.4 |  |  |
| CC1(C)CC(=O)C2=C(C1)NC(Nc1nc3ccccc3o1)=NC21CCCC1 | -120 | 29.1 µM [falling, partial curve] | 25.9 µM [falling, partial curve] |
| Cc1ccccc1-n1ncc2c1CC(C)(C)CC2NC(=O)CCn1cncn1 (centres undefined) | 16.6 |  |  |
| O=C1CCC(C(=O)OCc2ccccc2)N1 (centres undefined) | 3.29 | 0.13 µM [falling, full curve] |  |
| CCOC(=O)c1c(C)nc2c(c1-c1ccccc1)C(=O)c1ccccc1-2 | -25.7 | 0.58 µM [falling, single point] |  |
| COc1cc(C(=O)NCc2nnc(SCC(=O)NC3CCCCC3)o2)cc(OC)c1OC | -9.91 | 6.51 µM [rising, single point] |  |
| O=C(Cc1ccc(Br)cc1)Nc1ncc([N+](=O)[O-])s1 | -10.9 | 7.31 µM [falling, partial curve] |  |
| C/C(CC(=O)Nc1cccc(Cl)c1Cl)=N\NC(=O)c1ccccc1N | 4.97 | 0.0058 µM [rising, full curve, poor fit] |  |
| Cc1cccc(-n2c(CCn3nc(C)c([N+](=O)[O-])c3C)n[nH]c2=S)c1 | 38.6 | 0.651 µM [rising, single point] | 0.651 µM [rising, full curve, poor fit] |
| Cc1c(NC(=O)C(C)OC(=O)c2cccnc2Cl)c(=O)n(-c2ccccc2)n1C (centres undefined) | 3.08 |  |  |
| Cc1c(C(=O)Nc2c(N)nc(SCC(=O)NCC3CCCO3)[nH]c2=O)cccc1[N+](=O)[O-] (centres undefined) | -13.9 |  |  |
| CCOC(=O)C1CCCN(Cc2nc(N)nc(Nc3ccc(Cl)cc3)n2)C1 (centres undefined) | -18.9 |  |  |
| O=C(OCCN=C1NS(=O)(=O)c2ccccc21)c1ccccc1F | 2.42 | 29.1 µM [falling, single point] |  |
| COc1cc2c(cc1NC(=O)c1cccc(S(=O)(=O)N(C)C)c1)oc1ccccc12 | 8.13 | 0.116 µM [rising, full curve, poor fit] |  |
| COc1ccc2cc(Br)ccc2c1CC(=O)N(C)C | 164 |  |  |
| COc1ccc(CNC(=O)c2ccc(=O)oc2)cc1OC | 7.61 | 0.00517 µM [falling, full curve, poor fit] |  |

Exported as tab-separated lines: part of the list above.
SMILES	cell number change [%]	AC50 [1]	AC50 [2]
CCOC(=O)c1[nH]c(C)c(CN(Cc2ccco2)C(=O)C(F)(F)F)c1C	-22.7	29.1 µM [falling, single point]	
Cc1ccc(C(=O)Oc2coc(CSc3nnc(NC(=O)C4CC4)s3)cc2=O)cc1		0.259 µM [rising, full curve, poor fit]	
CCN(CC)c1ccc(/C=C2\SC(N)=NC2=O)cc1	6.88		
O=C(NC1CCSc2ccccc21)c1cccc(Cl)c1 (centres undefined)	12.4	29.1 µM [falling, single point]	
CCN(CC)S(=O)(=O)c1ccc(C(=O)NCCSc2c[nH]c3ccccc23)cc1			0.58 µM [rising, single point]
CC1(C)CC(=O)C2=C(C1)NC(Nc1nc3ccccc3o1)=NC21CCCC1	-120	29.1 µM [falling, partial curve]	25.9 µM [falling, partial curve]
Cc1ccccc1-n1ncc2c1CC(C)(C)CC2NC(=O)CCn1cncn1 (centres undefined)	16.6		
O=C1CCC(C(=O)OCc2ccccc2)N1 (centres undefined)	3.29	0.13 µM [falling, full curve]	
CCOC(=O)c1c(C)nc2c(c1-c1ccccc1)C(=O)c1ccccc1-2	-25.7	0.58 µM [falling, single point]	
COc1cc(C(=O)NCc2nnc(SCC(=O)NC3CCCCC3)o2)cc(OC)c1OC	-9.91	6.51 µM [rising, single point]	
O=C(Cc1ccc(Br)cc1)Nc1ncc([N+](=O)[O-])s1	-10.9	7.31 µM [falling, partial curve]	
C/C(CC(=O)Nc1cccc(Cl)c1Cl)=N\NC(=O)c1ccccc1N	4.97	0.0058 µM [rising, full curve, poor fit]	
Cc1cccc(-n2c(CCn3nc(C)c([N+](=O)[O-])c3C)n[nH]c2=S)c1	38.6	0.651 µM [rising, single point]	0.651 µM [rising, full curve, poor fit]
Cc1c(NC(=O)C(C)OC(=O)c2cccnc2Cl)c(=O)n(-c2ccccc2)n1C (centres undefined)	3.08		
Cc1c(C(=O)Nc2c(N)nc(SCC(=O)NCC3CCCO3)[nH]c2=O)cccc1[N+](=O)[O-] (centres undefined)	-13.9		
CCOC(=O)C1CCCN(Cc2nc(N)nc(Nc3ccc(Cl)cc3)n2)C1 (centres undefined)	-18.9		
O=C(OCCN=C1NS(=O)(=O)c2ccccc21)c1ccccc1F	2.42	29.1 µM [falling, single point]	
COc1cc2c(cc1NC(=O)c1cccc(S(=O)(=O)N(C)C)c1)oc1ccccc12	8.13	0.116 µM [rising, full curve, poor fit]	
COc1ccc(CNC(=O)c2ccc(=O)oc2)cc1OC	7.61	0.00517 µM [falling, full curve, poor fit]	

Remaining list, next part:

| SMILES | cell number change [%] | AC50 [1] | AC50 [2] |
| --- | --- | --- | --- |
| Cc1ccc(C(C[N+](=O)[O-])c2c(N)n(C)c(=O)n(C)c2=O)cc1 (centres undefined) | -36.4 | 29.1 µM [falling, single point] | 29.1 µM [falling, single point] |
| CCS(=O)(=O)N1Cc2ccccc2CC1C(=O)N(C)Cc1ccc(OC)c(F)c1 (centres undefined) | 9.58 |  |  |
| O=C(NCc1ccc(/C=c2\sc3n(c2=O)CCN=3)o1)C(=O)Nc1ccccc1 | -28.8 |  |  |
| O=C(Nc1ccccc1N1CCOCC1)C1CCCCN1S(=O)(=O)c1ccccc1 (centres undefined) | 24.4 | 5.8 µM [rising, full curve] | 2.59 µM [rising, full curve, poor fit] |
| CCN(CC(=O)NC1CCCC1)S(=O)(=O)c1ccc(Br)cc1 | -13.6 | 29.1 µM [falling, single point] |  |
| O=C(CCC(=O)OCc1cccc([N+](=O)[O-])c1)Nc1ccc(F)cc1 | 12.4 | 3.66 µM [rising, single point] | 6.51 µM [rising, single point] |
| Cc1cccc(CS(=O)(=O)Cc2ccc(C(=O)NCc3cccs3)o2)c1 | -23.6 | 29.1 µM [falling, single point] |  |
| CCCCC(CC)CNC(=O)CN1C(=O)NC2(CCc3ccccc32)C1=O (centres undefined) | 22.5 | 0.058 µM [falling, full curve, poor fit] | 5.17 µM [rising, partial curve, poor fit] |
| Cc1cc(NC(=O)C2CC(=O)N(c3cccc(Cl)c3)C2)no1 (centres undefined) | 20 |  | 6.51 µM [rising, partial curve] |
| CCCCn1nc(CC(=O)O)c2ccccc2c1=O | -5.14 | 4.11 µM [falling, full curve] |  |
| CCn1c(CNc2ccccc2Cl)nnc1SCC(=O)OC1CCCCC1 | 1.84 | 1.84 µM [falling, full curve] |  |
| COc1cc(-c2nnc(SCc3c(F)cccc3Cl)o2)cc(OC)c1OC |  | 29.1 µM [rising, single point] | 0.58 µM [rising, single point] |
| C=CCn1c(Cc2ccccc2)nc2c(cnn2-c2ccccc2)c1=O | 173 | 8.2 µM [rising, partial curve] | 7.31 µM [rising, partial curve] |
| Cc1ccc([N+](=O)[O-])cc1S(=O)(=O)Nc1ccc(C(=O)NCc2ccccn2)cc1 | 38.7 |  | 29.1 µM [rising, single point] |
| NC(=O)c1cc(-c2ccccc2)sc1NC(=O)CN1CCCCC1 | -24.8 | 29.1 µM [falling, single point] |  |
| CN(C)S(=O)(=O)c1ccc(C(=O)NNc2nc(-c3ccccc3)c3cc(Br)ccc3n2)cc1 | 25.2 | 8.2 µM [rising, partial curve] |  |
| COc1ccccc1C1(O)C(=O)Nc2ccccc21 (centres undefined) | -4.63 | 0.731 µM [falling, partial curve, poor fit] |  |
| Nc1c(C(=O)CSc2n[nH]c(-c3ccccc3Br)n2)c(=O)[nH]c(=O)n1C1CC1 | 32.9 | 7.31 µM [rising, partial curve] | 18.4 µM [rising, single point] |
| CC(C)(C)c1ccc(C(=O)Nc2ccc(F)cc2)s1 | -22.1 | 11.6 µM [falling, partial curve] | 1.03 µM [falling, full curve, poor fit] |
| CCOC(=O)c1cccc(NC(=O)CCc2nnc3ccc(N4CCCCC4)nn23)c1 | 28.6 | 29.1 µM [falling, single point] |  |
| CC1(C)CC(NC(=O)C2CCN(S(=O)(=O)c3cccc(C(F)(F)F)c3)CC2)CC(C)(C)N1 | -5.08 |  |  |

Exported with bars between the fields: entries from further up
SMILES | cell number change [%] | AC50 [1] | AC50 [2]
CCOC(=O)c1c(C)nc2c(c1-c1ccccc1)C(=O)c1ccccc1-2 | -25.7 | 0.58 µM [falling, single point] | 
COc1cc(C(=O)NCc2nnc(SCC(=O)NC3CCCCC3)o2)cc(OC)c1OC | -9.91 | 6.51 µM [rising, single point] | 

Additional structures.

| SMILES | cell number change [%] | AC50 [1] | AC50 [2] |
| --- | --- | --- | --- |
| CC(C)(C)c1ccc(C(=O)c2c[nH]c(C(=O)NCc3cccnc3)c2)cc1 | 72.2 | 16.4 µM [rising, partial curve] | 14.6 µM [rising, partial curve] |
| O=C(CSc1ccc(Br)cc1)N1CCN(S(=O)(=O)c2ccccc2)CC1 | 1.62 |  |  |
| Cc1cc(NC(=O)C(C)SCC(=O)OC(C)C(=O)Nc2cccc(C#N)c2)no1 (centres undefined) | -54.6 | 4.61 µM [falling, full curve] | 7.31 µM [falling, single point] |
| Cc1ccccc1-n1c(C)nc2ccccc21 | 73 |  | 5.8 µM [rising, partial curve] |
| CCOC(=O)N1CCC2(CC1)NCCc1c2[nH]c2ccccc12 | -8.88 |  |  |
| Cc1c(NC(C)c2ccccc2O)c(=O)n(-c2ccccc2)n1C (centres undefined) | -8.93 | 0.731 µM [falling, full curve] |  |
| Cc1ccc(N2C(=O)CN(Cc3sccc3C)C2=S)cc1C | -15.9 |  |  |
| COc1ccc(C(=O)NCCCNC(=O)c2cnccn2)cc1Br | -5.26 |  |  |
| Cc1cc(C)c(S(=O)(=O)c2ccc(Cl)cc2)c(Cl)n1 | -21.5 | 0.517 µM [falling, full curve] |  |
| Cn1c(NC(=O)CC(C)(C)C)cc(=O)n(C)c1=O | 6.86 | 0.731 µM [rising, full curve, poor fit] |  |
| CS(=O)(=O)N(CC(=O)Nc1ccccc1Br)Cc1ccccc1 | -13.5 |  |  |
| Cc1ccc(C(=O)N2CC3(C)CN(C(=O)c4ccc(C)cc4)CC(C)(C2)C3=O)cc1 | -13.5 | 3.66 µM [falling, single point] |  |
| Cc1cc(C(=O)Nc2ccc(Cl)cc2)c2ccccc2n1 | 31.6 |  | 32.6 µM [rising, single point] |
| O=C(Nc1nc2c(s1)CN(Cc1ccccc1)CC2)C1CCC1 | 22.9 | 0.651 µM [falling, single point] |  |
| COc1ccc(NC(=O)CNS(=O)(=O)c2ccccc2)cc1Cl | 90.2 |  |  |
| O=C(CSc1nnc(NC(=O)c2ccccc2F)s1)NC1CCCC1 | 11.7 |  |  |
| C=CCn1c(SCC(=O)NC2CCCCC2)nnc1-c1sc(N)nc1C | 99.1 | 18.4 µM [rising, partial curve] | 14.6 µM [rising, partial curve] |
| COc1nc(Cl)cn(-c2ccc(C)cc2)c1=O | -17.2 | 4.11 µM [falling, partial curve, poor fit] |  |
| Cc1cc(/C=N/NC(=O)c2ccncc2)c(C)n1-c1cccc(C(F)(F)F)c1 | -5.99 | 5.17 µM [falling, single point] |  |
| COc1ccc(C)cc1N(C(=O)c1snc(C(N)=O)c1N)C(C(=O)NC1CCCCC1)c1ccc(C)o1 (centres undefined) | -6.05 | 29.1 µM [falling, single point] |  |
| N/C(=N\OC(=O)CC1CCCCC1)c1ccc([N+](=O)[O-])cc1 | 8.69 | 0.461 µM [falling, full curve, poor fit] |  |
